Target: T1, OA/TAT (octopamine/tyramine transporter) (Trichoplusia ni, UniProt Q95VZ4, D309A/R312W)
T1 sequence (Q95VZ4 75-744 D309A/R312W): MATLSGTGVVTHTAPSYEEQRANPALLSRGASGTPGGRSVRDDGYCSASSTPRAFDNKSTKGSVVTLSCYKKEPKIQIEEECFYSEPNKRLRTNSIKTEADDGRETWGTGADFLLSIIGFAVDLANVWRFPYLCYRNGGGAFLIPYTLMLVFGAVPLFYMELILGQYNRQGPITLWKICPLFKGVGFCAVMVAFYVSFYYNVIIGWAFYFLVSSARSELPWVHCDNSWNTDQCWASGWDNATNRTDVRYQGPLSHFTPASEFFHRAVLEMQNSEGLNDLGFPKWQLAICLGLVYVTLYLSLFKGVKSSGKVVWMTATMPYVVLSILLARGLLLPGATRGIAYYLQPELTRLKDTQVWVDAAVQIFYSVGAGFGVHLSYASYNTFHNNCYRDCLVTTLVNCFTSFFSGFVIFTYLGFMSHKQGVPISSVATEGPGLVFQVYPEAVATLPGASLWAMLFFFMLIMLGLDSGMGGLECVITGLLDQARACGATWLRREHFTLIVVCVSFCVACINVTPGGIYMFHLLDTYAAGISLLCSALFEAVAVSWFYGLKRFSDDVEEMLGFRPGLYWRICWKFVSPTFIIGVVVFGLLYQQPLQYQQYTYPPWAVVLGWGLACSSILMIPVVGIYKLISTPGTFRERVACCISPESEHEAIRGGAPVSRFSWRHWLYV
Assay: 3H-dopamine uptake by OA/TAT expressed in baculovirus-infected Sf21 insect cells (transport assay)
Format: cell-based
Details: read-out: % Inhibition of 3H-Dopamine uptake by OA/TAT

Structure (SMILES): Nc1nc2ccc(OC(F)(F)F)cc2s1 [Riluzole]
- inhibition at 100 µM: -11.3%

Source: US7244837B2, “Insect monoamine transporter and methods of use thereof” (The University of Western Ontario, priority 1999, dated 2007)
